Assay results published in patent US8268827B2, “Pyridazinone derivatives as PARP inhibitors” (Istituto di Ricerche di Biologia Molecolare P. Angeletti …, priority 2007, dated 2012).
Some of these results come from one statement about several compounds together. For part of these data: At least one compound was matched to its structure with a doubt left.

By UniProt entry, the sequences of proteins in these tests, tags left out.
UniProt P09874, whole entry: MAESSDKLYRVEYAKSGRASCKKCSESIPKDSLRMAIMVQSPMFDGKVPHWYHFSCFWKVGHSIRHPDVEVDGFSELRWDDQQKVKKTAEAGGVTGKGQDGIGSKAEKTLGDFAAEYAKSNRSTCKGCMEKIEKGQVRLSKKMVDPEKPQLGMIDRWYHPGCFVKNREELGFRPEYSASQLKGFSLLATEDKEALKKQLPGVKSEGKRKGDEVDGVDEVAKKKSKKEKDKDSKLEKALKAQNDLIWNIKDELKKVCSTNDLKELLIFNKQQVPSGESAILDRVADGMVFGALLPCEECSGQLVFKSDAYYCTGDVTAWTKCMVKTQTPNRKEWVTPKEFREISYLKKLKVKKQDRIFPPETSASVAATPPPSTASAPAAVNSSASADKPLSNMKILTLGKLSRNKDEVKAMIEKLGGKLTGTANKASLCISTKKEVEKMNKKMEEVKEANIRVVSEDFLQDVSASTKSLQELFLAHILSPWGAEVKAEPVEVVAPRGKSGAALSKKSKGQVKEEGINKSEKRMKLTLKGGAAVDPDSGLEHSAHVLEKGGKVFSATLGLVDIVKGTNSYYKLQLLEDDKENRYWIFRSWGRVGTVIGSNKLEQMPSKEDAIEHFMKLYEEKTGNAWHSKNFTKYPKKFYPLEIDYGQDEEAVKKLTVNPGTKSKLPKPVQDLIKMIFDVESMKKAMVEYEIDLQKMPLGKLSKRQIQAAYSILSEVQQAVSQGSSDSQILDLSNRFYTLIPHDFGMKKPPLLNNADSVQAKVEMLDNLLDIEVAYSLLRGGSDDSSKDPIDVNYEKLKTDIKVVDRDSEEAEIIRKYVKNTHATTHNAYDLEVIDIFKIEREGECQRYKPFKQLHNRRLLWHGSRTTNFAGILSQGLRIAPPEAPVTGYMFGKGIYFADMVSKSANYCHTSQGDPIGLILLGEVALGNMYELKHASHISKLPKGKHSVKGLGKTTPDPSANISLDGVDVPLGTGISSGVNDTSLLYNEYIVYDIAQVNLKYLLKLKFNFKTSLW

Legend:
[1] = target: T1, PARP-1 (Homo sapiens, UniProt P09874); experiment: PARP-1 SPA assay; format: biochemical
T1 construct: purchased Trevigen 4668-500-01
Protocol: Assay buffer: 100 mM Tris pH 8, 4 mM MgCl2, 4 mM Spermine, 200 mM KCl, 0.04% Nonidet P-40.
Nicotinamide-adenine dinucleotide (NAD)/DNA Mix: [^3H-NAD] (250 uCi/ml, 0.4 ul, Perkin-Elmer NET-443H), NAD (1.5 mM, 0.05 ul, SIGMA N-1511), Biotinylated-NAD (250 uM, 0.03 ul, Trevigen 4670-500-01), Activated calf thymus (1 mg/ml, 0.05 ul, Amersham Biosciences 27-4575), H2O (to 10 ul).
Developing Mix: Streptavidin SPA beads (5 mg/ml, Amersham Biosciences RPNQ 0007) dissolved in 500 mM EDTA.
The reaction is performed in 96-well microplate with a final volume of 50 uL/well. Add 5 ul 5% DMSO/compound solution, add enzyme mix (35 ul), start the reaction by adding NAD/DNA mix (10 uL) and incubate for 2 hrs at RT. Stop the reaction by adding developing mix (25 ul) and incubate 15 min at RT. Measure using a Packard TOP COUNT instrument.

[2] = tested on: BRCA-1 silenced HeLa cells (HeLa shBRCA1-GFP); experiment: Proliferation assay in BRCA-1 silenced HeLa cells; conditions: read-out: CC50 in the BRCA1 silenced HeLa cells, 168 hours

Compound | IC50 [1] | CC50 [2]
3-(4-Fluoro-3-{[4-(3-thienyl)piperazin-1-yl]carbonyl}benzyl)-4,5-dimethyl-6-oxo-1,6-dihydropyridazin-1-ium trifluoroacetate [Example 74] | < 5 nM | 50 to 500 nM
C[C@@H]1CCC[C@@H]2CN(C(=O)c3cc(Cc4cc(C(F)(F)F)c(=O)[nH]n4)ccc3F)CC(=O)N21.C[C@H]1CCC[C@H]2CN(C(=O)c3cc(Cc4cc(C(F)(F)F)c(=O)[nH]n4)ccc3F)CC(=O)N21 (mixture of isomers) [Example 88, (6S,9aS)-2-(2-fluoro-5-{[6-oxo-5-(trifluoromethyl)-1,6-dihydropyridazin-3-yl]methyl}benzoyl)-6-methyloctahydro-4H-pyrido[1,2-a]pyrazin-4-one and (6R,9aR)-2-(2-fluoro-5-{[6-oxo-5-(trifluoromethyl)-1,6-dihydropyridazin-3-yl]methyl}benzoyl)-6-methyloctahydro-4H-pyrido[1,2-a]pyrazin-4-one] | < 5 nM | –
